# Experimental data published in the supplement of paper PMC12819154, “High-throughput peptide-centric local stability assay extends protein–ligand identification to membrane proteins, tissues and bacteria” (Nature Structural & Molecular Biology, 2025).
# The chains behind the UniProt entries cited, without tags or fusion partners. Where a name states a change or a piece, a line headed by the entry shows the natural chain unless it says otherwise.
# UniProt Q68CQ4: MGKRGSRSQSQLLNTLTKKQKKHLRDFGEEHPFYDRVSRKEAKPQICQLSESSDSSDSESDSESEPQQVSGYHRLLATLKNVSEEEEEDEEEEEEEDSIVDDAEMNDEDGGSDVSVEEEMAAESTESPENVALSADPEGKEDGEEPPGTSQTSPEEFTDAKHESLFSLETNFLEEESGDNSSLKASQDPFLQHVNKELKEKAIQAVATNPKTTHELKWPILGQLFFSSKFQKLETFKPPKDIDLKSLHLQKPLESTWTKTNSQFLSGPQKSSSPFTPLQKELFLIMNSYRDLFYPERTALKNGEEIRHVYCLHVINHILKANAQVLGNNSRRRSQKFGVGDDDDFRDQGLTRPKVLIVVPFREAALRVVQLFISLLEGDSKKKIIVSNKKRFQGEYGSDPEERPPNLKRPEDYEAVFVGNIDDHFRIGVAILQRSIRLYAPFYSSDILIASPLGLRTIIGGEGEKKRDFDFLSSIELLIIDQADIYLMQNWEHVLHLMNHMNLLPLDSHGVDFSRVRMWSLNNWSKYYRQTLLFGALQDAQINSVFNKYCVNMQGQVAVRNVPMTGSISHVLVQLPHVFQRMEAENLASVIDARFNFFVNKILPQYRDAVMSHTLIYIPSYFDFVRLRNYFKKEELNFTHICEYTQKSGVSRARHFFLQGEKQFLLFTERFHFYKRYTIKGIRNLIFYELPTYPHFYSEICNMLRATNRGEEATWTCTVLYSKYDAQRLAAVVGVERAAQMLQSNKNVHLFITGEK
# UniProt Q66GS9: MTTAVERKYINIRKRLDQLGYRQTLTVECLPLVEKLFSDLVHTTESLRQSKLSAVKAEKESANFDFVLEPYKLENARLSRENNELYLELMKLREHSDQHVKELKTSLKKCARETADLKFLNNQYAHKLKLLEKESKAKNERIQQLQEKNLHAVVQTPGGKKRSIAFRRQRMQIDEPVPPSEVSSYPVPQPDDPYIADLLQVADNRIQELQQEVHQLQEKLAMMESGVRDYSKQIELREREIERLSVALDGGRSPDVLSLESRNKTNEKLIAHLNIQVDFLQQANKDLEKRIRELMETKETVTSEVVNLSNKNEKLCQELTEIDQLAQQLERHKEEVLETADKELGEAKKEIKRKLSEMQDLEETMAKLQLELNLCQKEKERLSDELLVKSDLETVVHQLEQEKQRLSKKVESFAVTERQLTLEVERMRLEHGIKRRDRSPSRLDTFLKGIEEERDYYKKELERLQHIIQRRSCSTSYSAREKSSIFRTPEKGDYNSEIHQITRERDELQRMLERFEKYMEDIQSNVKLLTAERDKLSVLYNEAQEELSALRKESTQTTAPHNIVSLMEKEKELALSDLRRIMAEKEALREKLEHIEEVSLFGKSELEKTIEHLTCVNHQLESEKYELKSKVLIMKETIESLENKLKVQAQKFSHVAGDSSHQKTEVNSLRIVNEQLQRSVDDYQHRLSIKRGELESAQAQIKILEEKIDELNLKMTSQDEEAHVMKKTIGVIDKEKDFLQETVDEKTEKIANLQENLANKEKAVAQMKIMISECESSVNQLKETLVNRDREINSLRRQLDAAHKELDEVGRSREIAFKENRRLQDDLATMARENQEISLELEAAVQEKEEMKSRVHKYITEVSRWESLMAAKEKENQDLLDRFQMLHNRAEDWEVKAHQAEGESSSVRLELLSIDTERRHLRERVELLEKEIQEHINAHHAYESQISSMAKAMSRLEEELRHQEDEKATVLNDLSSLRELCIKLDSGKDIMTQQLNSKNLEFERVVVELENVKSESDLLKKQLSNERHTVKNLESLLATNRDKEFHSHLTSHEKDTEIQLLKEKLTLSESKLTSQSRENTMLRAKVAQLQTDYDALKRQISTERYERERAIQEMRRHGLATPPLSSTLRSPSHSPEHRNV
# UniProt Q6P3X8: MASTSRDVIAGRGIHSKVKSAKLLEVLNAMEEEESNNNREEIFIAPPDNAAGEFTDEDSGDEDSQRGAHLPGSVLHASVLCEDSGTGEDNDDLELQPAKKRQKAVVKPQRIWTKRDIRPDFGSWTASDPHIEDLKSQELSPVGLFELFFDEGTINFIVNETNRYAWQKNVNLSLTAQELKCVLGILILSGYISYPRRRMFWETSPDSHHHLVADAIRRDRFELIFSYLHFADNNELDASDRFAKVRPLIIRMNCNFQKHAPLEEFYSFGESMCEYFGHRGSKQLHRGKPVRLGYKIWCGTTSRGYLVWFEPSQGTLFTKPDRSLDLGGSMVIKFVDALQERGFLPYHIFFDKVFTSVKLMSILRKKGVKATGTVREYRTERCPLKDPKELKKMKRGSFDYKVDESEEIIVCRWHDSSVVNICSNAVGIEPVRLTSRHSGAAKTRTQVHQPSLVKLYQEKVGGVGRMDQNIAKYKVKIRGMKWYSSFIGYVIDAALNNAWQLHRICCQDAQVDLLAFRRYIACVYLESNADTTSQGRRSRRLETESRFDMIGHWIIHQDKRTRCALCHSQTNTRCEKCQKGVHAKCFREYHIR
# UniProt Q6P9B9, whole entry: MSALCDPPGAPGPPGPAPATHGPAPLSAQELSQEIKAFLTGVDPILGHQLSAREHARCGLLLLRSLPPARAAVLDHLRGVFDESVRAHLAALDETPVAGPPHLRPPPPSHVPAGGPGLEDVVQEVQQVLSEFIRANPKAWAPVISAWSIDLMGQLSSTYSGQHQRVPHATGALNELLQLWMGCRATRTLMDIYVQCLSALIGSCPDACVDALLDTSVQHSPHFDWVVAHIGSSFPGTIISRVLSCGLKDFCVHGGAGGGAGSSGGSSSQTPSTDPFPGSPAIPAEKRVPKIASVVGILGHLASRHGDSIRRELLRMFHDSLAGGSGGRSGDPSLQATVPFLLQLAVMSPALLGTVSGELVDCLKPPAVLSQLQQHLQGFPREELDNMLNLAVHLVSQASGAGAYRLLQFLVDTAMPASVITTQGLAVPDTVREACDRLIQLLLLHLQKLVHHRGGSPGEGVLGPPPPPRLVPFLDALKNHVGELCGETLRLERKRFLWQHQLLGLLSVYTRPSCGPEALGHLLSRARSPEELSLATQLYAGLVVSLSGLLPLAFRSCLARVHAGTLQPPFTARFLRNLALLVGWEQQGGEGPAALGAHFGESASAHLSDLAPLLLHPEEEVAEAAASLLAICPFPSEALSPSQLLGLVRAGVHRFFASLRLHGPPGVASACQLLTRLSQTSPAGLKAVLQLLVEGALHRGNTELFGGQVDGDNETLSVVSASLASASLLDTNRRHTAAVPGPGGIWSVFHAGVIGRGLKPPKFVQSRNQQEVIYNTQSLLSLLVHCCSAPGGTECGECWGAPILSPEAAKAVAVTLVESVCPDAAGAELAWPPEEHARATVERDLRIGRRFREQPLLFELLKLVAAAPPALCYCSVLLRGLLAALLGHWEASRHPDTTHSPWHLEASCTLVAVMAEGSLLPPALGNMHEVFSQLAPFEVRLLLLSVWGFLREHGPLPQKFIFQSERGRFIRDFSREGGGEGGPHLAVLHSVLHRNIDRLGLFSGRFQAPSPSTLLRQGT
# UniProt Q6P582, whole entry: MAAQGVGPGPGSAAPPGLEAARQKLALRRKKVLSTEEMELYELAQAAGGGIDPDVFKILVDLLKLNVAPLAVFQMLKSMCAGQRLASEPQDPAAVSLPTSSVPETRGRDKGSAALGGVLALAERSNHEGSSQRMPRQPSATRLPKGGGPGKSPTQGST
# UniProt Q6P3W7: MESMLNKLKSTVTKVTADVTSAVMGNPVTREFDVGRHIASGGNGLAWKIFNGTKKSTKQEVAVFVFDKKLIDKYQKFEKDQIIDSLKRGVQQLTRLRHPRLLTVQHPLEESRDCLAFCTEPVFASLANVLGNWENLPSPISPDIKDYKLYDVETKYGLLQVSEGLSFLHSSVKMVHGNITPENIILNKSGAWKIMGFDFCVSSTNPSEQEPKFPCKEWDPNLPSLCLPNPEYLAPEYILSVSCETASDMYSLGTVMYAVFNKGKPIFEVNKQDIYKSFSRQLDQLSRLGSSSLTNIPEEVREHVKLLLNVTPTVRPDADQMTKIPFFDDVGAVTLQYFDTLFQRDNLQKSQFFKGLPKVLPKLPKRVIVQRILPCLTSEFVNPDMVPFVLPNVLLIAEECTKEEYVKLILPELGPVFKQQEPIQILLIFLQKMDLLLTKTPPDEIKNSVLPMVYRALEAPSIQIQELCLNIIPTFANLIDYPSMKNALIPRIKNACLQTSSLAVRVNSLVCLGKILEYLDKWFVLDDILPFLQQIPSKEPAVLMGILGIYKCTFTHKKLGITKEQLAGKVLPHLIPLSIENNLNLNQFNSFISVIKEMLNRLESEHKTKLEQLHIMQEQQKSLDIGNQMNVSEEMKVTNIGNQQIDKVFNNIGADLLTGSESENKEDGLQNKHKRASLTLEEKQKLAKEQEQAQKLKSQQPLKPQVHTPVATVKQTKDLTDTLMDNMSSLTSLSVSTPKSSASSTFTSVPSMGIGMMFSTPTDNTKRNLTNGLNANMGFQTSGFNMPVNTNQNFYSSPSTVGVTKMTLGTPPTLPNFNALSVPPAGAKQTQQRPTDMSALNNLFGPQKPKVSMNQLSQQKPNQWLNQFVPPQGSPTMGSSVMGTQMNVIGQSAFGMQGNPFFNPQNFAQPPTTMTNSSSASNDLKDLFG
# UniProt Q6P280: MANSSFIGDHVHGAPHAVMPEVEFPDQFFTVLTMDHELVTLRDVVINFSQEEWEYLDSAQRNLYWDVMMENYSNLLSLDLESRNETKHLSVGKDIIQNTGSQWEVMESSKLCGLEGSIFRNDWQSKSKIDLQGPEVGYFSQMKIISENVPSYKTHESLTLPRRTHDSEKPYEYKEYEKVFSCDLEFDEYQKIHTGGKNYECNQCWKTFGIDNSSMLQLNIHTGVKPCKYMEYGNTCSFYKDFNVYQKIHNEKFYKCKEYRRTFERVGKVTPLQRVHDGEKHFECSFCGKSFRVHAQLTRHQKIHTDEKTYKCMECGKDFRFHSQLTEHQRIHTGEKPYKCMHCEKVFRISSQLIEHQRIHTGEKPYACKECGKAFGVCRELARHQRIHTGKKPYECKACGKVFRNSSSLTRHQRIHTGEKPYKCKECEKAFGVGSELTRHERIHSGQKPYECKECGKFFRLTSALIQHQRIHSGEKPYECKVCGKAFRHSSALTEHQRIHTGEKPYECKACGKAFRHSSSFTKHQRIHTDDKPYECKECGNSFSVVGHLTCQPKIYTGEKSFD
# UniProt Q6P1R3: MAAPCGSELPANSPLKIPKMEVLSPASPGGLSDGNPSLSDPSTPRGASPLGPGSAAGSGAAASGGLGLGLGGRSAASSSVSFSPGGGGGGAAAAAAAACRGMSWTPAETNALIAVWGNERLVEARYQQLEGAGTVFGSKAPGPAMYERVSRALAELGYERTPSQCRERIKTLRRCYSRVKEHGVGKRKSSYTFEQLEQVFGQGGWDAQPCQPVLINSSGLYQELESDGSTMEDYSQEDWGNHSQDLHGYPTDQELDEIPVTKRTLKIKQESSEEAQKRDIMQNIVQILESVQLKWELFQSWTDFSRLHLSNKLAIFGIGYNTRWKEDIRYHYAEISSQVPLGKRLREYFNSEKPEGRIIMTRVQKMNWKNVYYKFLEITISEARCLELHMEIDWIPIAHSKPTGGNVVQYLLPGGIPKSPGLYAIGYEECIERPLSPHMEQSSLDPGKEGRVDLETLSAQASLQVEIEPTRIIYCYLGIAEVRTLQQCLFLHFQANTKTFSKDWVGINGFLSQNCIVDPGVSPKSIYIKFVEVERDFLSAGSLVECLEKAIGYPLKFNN
# UniProt Q6P6C2: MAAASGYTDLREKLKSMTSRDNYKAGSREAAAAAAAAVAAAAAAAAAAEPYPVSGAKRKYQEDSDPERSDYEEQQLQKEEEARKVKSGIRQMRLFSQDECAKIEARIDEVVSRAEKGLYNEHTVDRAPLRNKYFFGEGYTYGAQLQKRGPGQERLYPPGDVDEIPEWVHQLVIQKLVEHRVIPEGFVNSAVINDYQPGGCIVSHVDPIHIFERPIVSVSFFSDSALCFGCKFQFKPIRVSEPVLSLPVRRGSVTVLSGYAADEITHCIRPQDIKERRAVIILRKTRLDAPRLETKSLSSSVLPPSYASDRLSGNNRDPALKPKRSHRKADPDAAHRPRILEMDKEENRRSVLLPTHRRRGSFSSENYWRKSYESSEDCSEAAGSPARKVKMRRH
# UniProt Q6NUK4: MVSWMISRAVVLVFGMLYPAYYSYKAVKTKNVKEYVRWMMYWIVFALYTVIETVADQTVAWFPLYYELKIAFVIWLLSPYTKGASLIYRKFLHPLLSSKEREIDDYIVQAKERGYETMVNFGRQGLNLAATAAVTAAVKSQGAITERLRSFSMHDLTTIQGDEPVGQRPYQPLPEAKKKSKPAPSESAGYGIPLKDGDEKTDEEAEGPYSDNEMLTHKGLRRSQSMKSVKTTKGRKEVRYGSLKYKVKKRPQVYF
# The list shows a part of the results. Small differences around the control level are noise.
# Compound: Cc1nc(Nc2ncc(C(=O)Nc3c(C)cccc3Cl)s2)cc(N2CCN(CCO)CC2)n1 [dasatinib]
# Experiment: log2 fold change of tryptic peptide abundance, ligand vs vehicle (limited proteolysis) (log2 ratio); higher = more trypsin-susceptible (destabilized)
# Conditions: ligand concentration: 5 uM; sample: K562 cleared lysate
row,Target,log2 fold change
1,"UniProt Q68CQ4 (peptide sequence: DLFYPER, peptide start residue: 291)",0.183
2,"CEP135 (peptide sequence: LFSDLVHTTESLR, peptide start residue: 36) (UniProt Q66GS9)",-0.138
3,"UniProt Q6P3X8 (peptide sequence: SLDLGGSMVIK, peptide start residue: 323)",0.356
4,"INTS5 (peptide sequence: HTAAVPGPGGIWSVFHAGVIGR, peptide start residue: 735) (UniProt Q6P9B9)",0.935
5,"UniProt Q6P582 (peptide sequence: GSAALGGVLALAER, peptide start residue: 111)",0.0948
6,"SCYL2 (peptide sequence: FEKDQIIDSLKR, peptide start residue: 77) (UniProt Q6P3W7)",-1.01
7,"UniProt Q6P280 (peptide sequence: HQRIHTDDK, peptide start residue: 524)",0.21
8,"MSANTD2 (peptide sequence: LREYFNSEK, peptide start residue: 345) (UniProt Q6P1R3)",0.38
9,"EFCAB2 (peptide sequence: GFLTKDELIK, peptide start residue: 246) (UniProt Q5VUJ9)",0.503
10,"ALKBH5 (peptide sequence: SVLLPTHR, peptide start residue: 350) (UniProt Q6P6C2)",-0.196
11,"REEP3 (peptide sequence: GYETMVNFGR, peptide start residue: 114) (UniProt Q6NUK4)",0.245

# Reprinted at random: 2 records from the list, in no set order.
row,Target,log2 fold change
6,"SCYL2 (peptide sequence: FEKDQIIDSLKR, peptide start residue: 77) (UniProt Q6P3W7)",-1.01
3,"UniProt Q6P3X8 (peptide sequence: SLDLGGSMVIK, peptide start residue: 323)",0.356
